{"source": "paper PMC4912613", "about": "“A broad analysis of resistance development in the malaria parasite” (Nature Communications, 2016)", "assay_type_in_all_cases": "cell-based, Plasmodium falciparum", "key": {"3D7": {"system": "3D7", "experiment": "Cross-resistance EC50 assay, 3D7 parent / sensitive strain", "source_text": "(§1) Multidrug resistance alleles, including mutations in P. falciparum chloroquine resistance transporter (pfcrt) and P. falciparum multi-drug resistance transporter 1 (pfmdr1) are very common in field isolates. Therefore, we sought to assess the degree to which pre-existing resistance alleles would contribute to a loss of potency for this diverse collection of small molecule compounds. Fifteen clones derived from three main parent lines were chosen to maximize diversity in mutated pathways and genetic backgrounds, thus representing the variety of resistance seen in the field: 3D7 (ref. [23]), W2 (ref. [24]) or Dd2 (ref. [25]). The 3D7 line originates from the clone of a Netherlands clinical isolate strain[23][26] and is generally considered to be drug sensitive, though it does convey resistance to sulfadoxine. Conversely, W2 (ref. [24], [27]) and Dd2 (ref. [25]) are multi-drug-resistant lines originating from the Indochina III/CDC isolate, which contain point mutations in pfcrt as well as amplifications in pfmdr1 and GTP cyclohydrolase.\n(§2) To evaluate potential overlapping activity against known antimalarial drug targets, we performed dose-response studies with each compound against our assembled set of drug-resistant lines and their corresponding parents, in an asexual blood stage proliferation assay (Table 1). Comparisons were made to the drug-sensitive strain 3D7 when a parent was unavailable (TM90C2A, W2 and Dd2). As laboratories conducted EC50 assays with different strains and protocols, all comparisons were made between assays from the same laboratory and under the same assay conditions. Compounds displaying >5-fold EC50 shifts relative to the parent or sensitive strain were flagged as having potentially non-novel targets. Average fold shifts per strain ranged from 0.82 to 2.34, with a median of 1.23 indicating there was not common resistance to any one resistant clone. No resistance patterns were observed when classifying the compounds based on chemical structure, but this was not surprising given the diversity of compounds chosen. On the other hand, given that these confirmed compounds were derived from larger unconfirmed hit lists to which some filtration criteria may have been applied (for example, elimination of obvious dihydrofolate reductase inhibitors[32]), some[10][11][12][13] pre-existing bias may exist in the set.\n(§3) The 48-h assay was carried out in a 96-well format following standard methods using the ^3H-hypoxanthine incorporation assay. The raw EC50 values corresponding to this assay can be found in Supplementary Data 3. Briefly, this assay relies on the parasite incorporation of labelled hypoxanthine that is proportional to P. falciparum growth. A culture of parasitized RBCs (0.5% parasitemia with a percentage of ring stage higher than 70% of total parasitemia, 2.0% haematocrit) in RPMI-1640, […] and 5 μM hypoxanthine was exposed to drug serial dilutions. Plates were incubated for 24 h at 37 °C, 5% CO2, 5% O2 and 90% N2. After 24 h of incubation, ^3H-hypoxanthine was added and plates were incubated for an additional 24-h period. After that, parasites were harvested on a glass fibre filter using a TOMTEC Cell Harvester 96. Filters were dried and melt-on scintillator sheets were used to determine the incorporation of ^3H-hypoxanthine. Radioactivity was measured using a microbeta counter. Data were normalized using the incorporation of the positive (parasitized RBCs without drug) and negative (same culture with artesunate at 2 μM) controls. All assays were conducted in triplicate using three independently grown cultures, and EC50 values were determined using the XLfit add-in module for Excel (version 2.3.1) from Grafit (version 5.3.1.3), where parameter h is the assay hill slope, x is the compound concentration and y is the inhibition of growth effect. The XLfit equation is: […]\n(§4) Alternatively, a SYBR Green-based proliferation approach was used for the 72-h assay, as previously described. […]"}, "Dd2": {"system": "Dd2", "experiment": "Cross-resistance EC50 assay, Dd2 parent", "conditions": "SYBR green 72 hour assay, Dd2 parent", "source_text": "as §1\nas §2, with “set. […]” for “set.”\n(§5) Alternatively, a SYBR Green-based proliferation approach was used for the 72-h assay, as previously described. Briefly, a culture of either synchronized or asynchronous parasitized RBCs (0.3% parasitemia and 4% haematocrit) in screening medium (identical to supplemented medium above except no serum was added) was exposed to serial drug dilutions. Plates were incubated at 37 °C and gassed with 93% N2, 4% CO2 and 3% O2 for 72 h. Following incubation, 10 × SYBR Green I (Invitrogen; supplied in 10,000 × concentration) in lysis buffer ([…], 5 mM EDTA, 0.16% Saponin wt per vol and 1.6% Triton X vol per vol) was added to the wells and the plates were incubated overnight at room temperature before plate reading. EC50 assays were repeated three times, taking the average EC50 value from each assay set, and removing any outliers using a single iteration of Grubbs' test, eliminating values with z-scores above the critical z-value (α=0.05). The raw EC50 values for synchronized parasites assayed in a 384-well format are listed in Supplementary Data 4. The raw EC50 values for asynchronous parasites assayed in a 96 or 1536-well format are listed in Supplementary Data 5.\n(§6) EC50 values for each strain were compared with those of the corresponding parent strain to determine fold-shift changes and identify resistance. To minimize the cause variance between assays, all comparisons were conducted between strains assayed under identical conditions. A one-way ANOVA followed by a Dunnet's post-test was conducted in GraphPad Prism to identify significant changes between the parent and resistant strain."}, "[1]": {"system": "ProRS (prolyl t-RNA synthetase L482H, parent Dd2)", "experiment": "Cross-resistance EC50 assay, ProRS", "conditions": "SYBR green 72 hour assay; synchronized parasites; 384-well format; ProRS strain", "source_text": "as §2, with “set. […]” for “set.”\nas §5, §6"}, "[2]": {"system": "CYTb-G131S (cytb G131S, parent Dd2)", "experiment": "Cross-resistance EC50 assay, CYTb-G131S", "conditions": "SYBR green 72 hour assay; synchronized parasites; 384-well format; CYTb:G131S strain", "source_text": "as §2, with “set. […]” for “set.”\nas §5, §6"}, "[3]": {"system": "GNF156R (PfCARL L830V, S1076I and M81I, parent Dd2)", "experiment": "Cross-resistance EC50 assay, GNF156R", "conditions": "SYBR green 72 hour assay, asynchronized parasites, 96-well or 1536-well format", "source_text": "as §2, with “set. […]” for “set.”\nas §5, §6"}, "[4]": {"system": "DHODH (E182D, parent 3D7)", "experiment": "Cross-resistance EC50 assay, DHODH", "conditions": "SYBR green 72 hour assay; synchronized parasites; 384-well format; DHODH strain", "source_text": "as §2, with “set. […]” for “set.”\nas §5, §6"}, "[5]": {"system": "ATQ-R5 (cytb F267V, parent 3D7)", "experiment": "Cross-resistance EC50 assay, ATQ-R5", "conditions": "SYBR green 72 hour assay, asynchronized parasites, 96-well or 1536-well format", "source_text": "as §2, with “set. […]” for “set.”\nas §5, §6"}, "[6]": {"system": "CYTbQi (cytb G33A, parent Dd2)", "experiment": "Cross-resistance EC50 assay, CYTbQi", "conditions": "SYBR green 72 hour assay; synchronized parasites; 384-well format; CYTbQi strain", "source_text": "as §2, with “set. […]” for “set.”\nas §5, §6"}, "[7]": {"system": "ATQ-R4 (cytb M133I and L144S, parent 3D7)", "experiment": "Cross-resistance EC50 assay, ATQ-R4", "conditions": "SYBR green 72 hour assay, asynchronized parasites, 96-well or 1536-well format", "source_text": "as §2, with “set. […]” for “set.”\nas §5, §6"}, "PfCRT-Q352R (parent Dd2)": {"system": "PfCRT-Q352R (parent Dd2)", "experiment": "Cross-resistance EC50 assay, PfCRT-Q352R", "conditions": "SYBR green 72 hour assay; synchronized parasites; 384-well format; PfCRT:Q352R strain", "source_text": "as §2, with “set. […]” for “set.”\nas §5, §6"}, "hsp90 (D88Y, parent Dd2)": {"system": "hsp90 (D88Y, parent Dd2)", "experiment": "Cross-resistance EC50 assay, hsp90", "conditions": "SYBR green 72 hour assay; synchronized parasites; 384-well format; HSP90 strain", "source_text": "as §2, with “set. […]” for “set.”\nas §5, §6"}, "[8]": {"system": "GNF449-R2 (PfATP4 I203L and P990R, parent Dd2)", "experiment": "Cross-resistance EC50 assay, GNF449-R2", "conditions": "SYBR green 72 hour assay, asynchronized parasites, 96-well or 1536-well format", "source_text": "as §2, with “set. […]” for “set.”\nas §5, §6"}, "[9]": {"system": "NITD609-R2 (PfATP4 T418N and P990R, parent Dd2)", "experiment": "Cross-resistance EC50 assay, NITD609-R2", "conditions": "SYBR green 72 hour assay, asynchronized parasites, 96-well or 1536-well format", "source_text": "as §2, with “set. […]” for “set.”\nas §5, §6"}, "[10]": {"system": "PfATP4-Mut1 (PfATP4 V178I, parent W2)", "experiment": "Cross-resistance EC50 assay, PfATP4-Mut1", "conditions": "hypoxanthine 48-hour assay; synchronized parasites; 96-well format; strain PfATP4 Mut1", "source_text": "as §2, §3\nas §5, with “5. […]” for “5.”"}, "[11]": {"system": "PfATP4-Mut2 (PfATP4 P412L, parent W2)", "experiment": "Cross-resistance EC50 assay, PfATP4-Mut2", "conditions": "hypoxanthine 48-hour assay; synchronized parasites; 96-well format; strain PfATP4 Mut2", "source_text": "as §2, §3\nas §5, with “5. […]” for “5.”"}, "[12]": {"system": "PfATP4-Mut3 (PfATP4 F917L, parent 3D7)", "experiment": "Cross-resistance EC50 assay, PfATP4-Mut3", "conditions": "hypoxanthine 48-hour assay; synchronized parasites; 96-well format; strain PfATP4 Mut3", "source_text": "as §2, §3\nas §5, with “5. […]” for “5.”"}, "[13]": {"system": "TM90C2A (DHFR, folate pathway; compared with 3D7)", "experiment": "Cross-resistance EC50 assay, TM90C2A", "parameters": "unit not given beside the values", "conditions": "hypoxanthine 48-hour assay; synchronized parasites; 96-well format; strain TM90C2A", "source_text": "as §2, §3, §6"}, "W2": {"system": "W2", "experiment": "Cross-resistance EC50 assay, W2 parent", "conditions": "hypoxanthine 48-hour assay; synchronized parasites; 96-well format; strain W2F6 (parent)", "source_text": "as §1, §2, §3, §4"}}}
{"smiles": "COc1ccc(NC(=O)N2CCCCN3[C@H](CN)[C@H](c4ccc(C#Cc5ccccc5)cc4)[C@@H]3C2)cc1", "note": "[BRD1095]", "values": [{"measurement": "3D7 (PARENT) Average Hill Slope", "setting": "3D7; SYBR green 72 hour assay, asynchronized parasites, 96-well or 1536-well format, 3D7 parent", "result": 1.66}, {"measurement": "3D7 (PARENT) Average Hill Slope", "setting": "3D7; SYBR green 72 hour assay, synchronized parasites, 384-well format, 3D7 parent", "result": 7.84}, {"measurement": "Dd2 (PARENT) Average Hill Slope", "setting": "Dd2; asynchronized parasites, 96-well or 1536-well format", "result": 1.89}, {"measurement": "Dd2 (PARENT) Average Hill Slope", "setting": "Dd2; synchronized parasites, 384-well format", "result": 5.26}, {"measurement": "ProRS (Dd2 Parent) Average Hill Slope", "setting": "[1]", "result": 5.26}, {"measurement": "CYTb:G131S (Dd2 Parent) Average Hill Slope", "setting": "[2]", "result": 7.39}, {"measurement": "GNF156R (Dd2 Parent) Average Hill Slope", "setting": "[3]", "result": 1.06}, {"measurement": "DHODH (3D7 Parent) Average Hill Slope", "setting": "[4]", "result": 6.37}, {"measurement": "ATQ-R5 (3D7 Parent) Average Hill Slope", "setting": "[5]", "result": 0.98}, {"measurement": "CYTbQi (Dd2 Parent) Average Hill Slope", "setting": "[6]", "result": 5.92}, {"measurement": "ATQ-R4 (3D7 Parent) Average Hill Slope", "setting": "[7]", "result": 1.04}, {"measurement": "PfCRT:Q352R (Dd2 Parent) Average Hill Slope", "setting": "PfCRT-Q352R (parent Dd2)", "result": 4.36}, {"measurement": "HSP90 (Dd2 Parent) Average Hill Slope", "setting": "hsp90 (D88Y, parent Dd2)", "result": 5.26}, {"measurement": "GNF449-R2 (Dd2 Parent) Average Hill Slope", "setting": "[8]", "result": 1.25}, {"measurement": "NITD609-R2 (Dd2 Parent) Average Hill Slope", "setting": "[9]", "result": 1.64}]}
{"smiles": "COc1ccc(NC(=O)N2CCCCN3[C@H](CO)[C@H](c4ccc(C#Cc5ccccc5)cc4)[C@@H]3C2)cc1", "note": "[BRD3444]", "values": [{"measurement": "3D7 (PARENT) Average Hill Slope", "setting": "3D7; hypoxanthine 48-hour assay, synchronized parasites, 96-well format, strain 3D7 (parent)", "result": 1.47}, {"measurement": "3D7-C9-WT (PARENT) Average Hill Slope", "setting": "3D7; hypoxanthine 48-hour assay, synchronized parasites, 96-well format, strain 3D7-C9-WT (parent of PfATP4 Mut3)", "result": 1.43}, {"measurement": "PfATP4 Mut1 (W2F6 Parent) Average Hill Slope", "setting": "[10]", "result": 2.07}, {"measurement": "PfATP4 Mut2 (W2F6 Parent) Average Hill Slope", "setting": "[11]", "result": 1.12}, {"measurement": "PfATP4 Mut3 (3D7-C9-WT Parent) Average Hill Slope", "setting": "[12]", "result": 1.97}, {"measurement": "TM90C2A (3D7 Parent) Average Hill Slope", "setting": "[13]", "result": 1.64}, {"measurement": "W2F6 (PARENT) Average Hill Slope", "setting": "W2", "result": 2.25}]}
